According to PubChem BioAssay:
Some of the results follow. Further columns of the screen follow, without active or inactive calls. For some of these results: Compounds called inactive in the main read-out are mostly missing here.

Experiments:
PubChem AID 1586 = details: yeast two-hybrid polyglutamine protein interaction, reporter readout; measured here: averaged growth delta OD
[1] = enhancers of SMN2 over SMN1 splicing, cell-based, SMN2/SMN1 luciferase reporters (AID 1598); details: SMN2 vs SMN1 luciferase splicing reporter cells, at 10 µM; SMN1 luciferase ratio: measured here: SMN1 luciferase reporter average; SMN2 luciferase ratio: measured here: SMN2 luciferase reporter average, stronger effect = higher value
[2] = protection against mutant huntingtin cytotoxicity, PC12 cells, LDH release (AID 1610); details: PC12 mutant huntingtin toxicity, final LDH at 4 uM, stronger effect = lower value

| Structure (SMILES) | signal change (36 h minus 0 h) (PubChem AID 1586) | SMN1 luciferase ratio [1] | SMN2 luciferase ratio [1] | normalised LDH release [2] |
| --- | --- | --- | --- | --- |
| COc1ccc2c(c1OC)C(=O)O[C@H]2[C@H]1c2cc3c(cc2CCN1C)OCO3 | 0.167 | 0.87 | 0.88 | 0.875 |
| C[C@@H]1O[C@@H](O[C@H]2C[C@@H](O)[C@]3(CO)C4C(CC[C@]3(O)C2)[C@@]2(O)CC[C@H](C3=CC(=O)OC3)[C@@]2(C)C[C@H]4O)[C@H](O)[C@H](O)[C@H]1O (stereo partly drawn) | 0.319 | 0.05 | 0.09 | 1.03 |
| COC(=O)C1C(OC(=O)c2ccccc2)CC2CCC1N2C (stereo not drawn) | 0.322 | 0.89 | 0.83 | 0.799 |
| FC(F)(F)c1cccc(N2CCNCC2)c1 | 0.411 | 0.86 | 0.98 | 1.02 |
| COc1ccc(Cc2nccc3cc(OC)c(OC)cc23)cc1OC | 0.186 | 0.82 | 0.52 | 0.84 |
| CO[C@H]1[C@H](O)[C@H](O[C@H]2CC[C@]3(C)C4CC[C@]5(C)C(C6=CC(=O)OC6)CC[C@]5(O)C4CC[C@@H]3C2)O[C@@H](C)[C@@H]1O (stereo partly drawn) | 0.078 | 0.04 | 0.08 | 0.834 |
| CC(C)(C)NCC(O)c1ccccc1Cl (stereo not drawn) | 0.0781 | 0.84 | 0.86 | 0.924 |
| O=[N+]([O-])c1cc(O)c(O)c([N+](=O)[O-])c1 | 0.151 | 0.9 | 1.02 | 0.773 |
| O=C1CN=C(c2ccccc2Cl)c2cc([N+](=O)[O-])ccc2N1 | 0.438 | 0.85 | 0.9 | 0.867 |
| COc1ccc2c3c1O[C@H]1[C@@H](O)C=CC4[C@@H](C2)N(C)CC[C@@]341 (stereo partly drawn) | 0.199 | 0.82 | 0.93 | 0.904 |
| O=C1CCCN1CC#CCN1CCCC1 | 0.178 | 0.89 | 0.86 | 0.603 |
| C=CCC1(CC(C)C)C(=O)NC(=O)NC1=O | 0.185 | 0.91 | 0.91 | 0.709 |
| CN1C[C@H](CO)C=C2c3cccc4[nH]cc(c34)C[C@H]21 | 0.165 | 0.94 | 0.85 | 0.83 |
| [N-]=[N+]=CC(=O)OCC(N)C(=O)O (stereo not drawn) | 0.0951 | 0.95 | 0.77 | 3.11 |
| O=[N+]([O-])O[C@H]1CO[C@H]2[C@@H]1OC[C@H]2O[N+](=O)[O-] | 0.0837 | 0.85 | 0.86 | 1.04 |
| O=c1ccc2cc(O[C@H]3O[C@H](CO)[C@@H](O)[C@H](O)[C@H]3O)c(O)cc2o1 | 0.0506 | 1.15 | 0.97 | 0.885 |
| NCCc1ccc(O)cc1 | 0.0363 | 0.89 | 0.93 | 1.43 |
| c1ccc2c(c1)sc1ccccc12 | 0.184 | 0.89 | 0.86 | 0.912 |
| O=c1[nH]oc2c1CCNC2 | 0.185 | 0.88 | 0.91 | 0.871 |
| CC(N)Cc1ccc2c(c1)OCO2 (stereo not drawn) | 0.0979 | 0.97 | 0.87 | 0.982 |
| C[n+]1cc2c3c(ccc2c2ccc4cc5c(cc4c21)OCO5)OCO3 | 0.0891 | 0.98 | 0.9 | 0.828 |
| C#CC1(O)CCC2C3CCC4=CC(=O)CCC4(C)C3CCC21C (stereo not drawn) | 0.064 | 0.95 | 0.96 | 0.979 |

One compound at a time, from the list above:
`FC(F)(F)c1cccc(N2CCNCC2)c1` is entered as signal change (36 h minus 0 h) (PubChem AID 1586): 0.411; SMN1 luciferase ratio [1]: 0.86; SMN2 luciferase ratio [1]: 0.98; normalised LDH release [2]: 1.02
`CC(C)(C)NCC(O)c1ccccc1Cl` (stereo not drawn) is entered as signal change (36 h minus 0 h) (PubChem AID 1586): 0.0781; SMN1 luciferase ratio [1]: 0.84; SMN2 luciferase ratio [1]: 0.86; normalised LDH release [2]: 0.924
